The values that follow come from PubChem BioAssay AID1508600 (Functional Genomics Laboratory (NCATS/FGL), 2020).

The whole screen tested about 53,000 sequences, of which about 3,700 (7%) were called active.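 Rule for the calls: active = gene knockdowns whose robust z-score for IL-1 alpha signal is at least 2 or at most -2, so actives lie on both sides; inactive = the rest.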 Some of the results follow.

The experiment can be described thus: Components of the Cytosolic LPS Sensing Pathway: Gene Identification via Genome-wide siRNA Screen.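 Note: robust z of the log signal after scaling to non-targeting control siRNA wells of the plate.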 As to conditions: RAW264.7 macrophages, IL-1a HTRF, actives lie on both sides, screened at 100 nM (by protocol), cells primed 5 h with Pam3CSK4 first. In outline: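 Three distinct siRNAs per gene were tested singly at 100 nM in RAW264.7 macrophages. Following Pam3CSK4 priming and 24 hour LipidA transfection, IL-1a secretion was read by HTRF.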
CCUGAAUGGACAAACAGGATT against Gm6460: the z-score was inactive: -0.193.
For GCCAUCGUCUACCUAUGACTT against Olfr358, the z-score is inactive: -1.85.
For the sequence CCCAUCUUUGCAACAUAUCTT against Scgb2b20, the z-score was inactive: -1.43.
The value for CGUGUUUCAGGUUUCUAUUTT against Sgpp2 was inactive: 0.841.
Consider GCCGAAUAUUUCUACCUAATT against Fosl2, for which the z-score was inactive: 0.989.
With GCAAUACGUGGAAGAUGGATT against Prex1, the z-score is inactive: -1.98.
Regarding GCAGGCUCUGCAUGAAGCATT against Alpl, the z-score is inactive: -0.213.
Regarding GGAGAAAGAGAUUCCUAUUTT against Triap1, the z-score was inactive: -0.818.
For GGCUUUGUAUCAUCAUCAUTT against Vsir, the z-score was inactive: -0.906.
Turning to GGUAUCACACUGGAAAGAATT against Zfp78, the z-score was inactive: 0.0156.
With GGUAGAUUUUGAUGAAUUCTT against Caln1, the z-score is inactive: 0.404.
In the case of GGUGACAAAACCAUUUCCUTT against Olfr810, the z-score is inactive: -0.547.
Take CCUAUAUUCGGAGUGCAGUTT against Cops2: the z-score is inactive: 0.541.
With GGCCAAGAACCGCUUUCACTT against Hesx1, the z-score is inactive: -1.46.
On to CAGGAAAUUAGCGAUGUGGTT against Abl2, for which the z-score is inactive: 0.206.
Turning to GGUGUUGGAUUCCAAUCCCTT against Uba5, the z-score is inactive: -0.462.
For the sequence GGAAGAGGGUUAAGAAAACTT against Nnat, the z-score was inactive: 0.618.
Regarding CCUUACGAAAUAAGGUAUUTT against Loxl3, the z-score is inactive: -0.961.
Take UGUAACCAUGGUUACCGUGTT against Olfr1513: the z-score is inactive: 0.311.
In the case of GGAAUCUGAAGGAGAUGCATT against Tmprss15, the z-score is inactive: 0.308.
For CGUAGAAGAAUCUGCAUCATT against Ccl28, the z-score was inactive: -0.715.
In the case of GGCUGUGGAUAAUAAACAUTT against Vmn1r84 it was inactive: -1.1; in that of GCGUGCAUAUCUUAGAAAUTT against Zfp51, inactive: -0.401; in that of GGAAAAAAGUUCAUCGUGGTT against Kcnu1, inactive: 0.205.
With GGAGAUUUGCUCCUUAGUGTT against Pcdhb19, the z-score is inactive: -0.491.
As for GCCUGUAAGACUGUACUGGTT against Slurp1, the z-score is inactive: -0.37.
Take GCAUCGAUAGUAUACUGUGTT against Srr: the z-score was inactive: -0.126.
For the sequence GGUUCUACGGUCCAAAGUUTT against Fetub, the z-score was inactive: -0.421.
The value for GGUUACCAAGCCUAAGACCTT against H1f5 was inactive: -0.48.
Turning to CCUGGACAAGCAAGAUCUCTT against Vmn2r42, the z-score is inactive: 1.36.
For the sequence GGCUCUGAUCUUGAACUAATT against Tmem35a, the z-score was inactive: -0.017.
In the case of GUUCAUCAUUCGAAUCUGGTT against Kcnq5, the z-score is inactive: -1.19.
As for GCCCUGUAUUUUGAAUUACTT against Bmpr1b, the z-score is inactive: 0.0161.
Turning to GAUCUUAGCUGUGUGUGUGTT against Pf4, the z-score is active: -2.57.
As to CGUUUCUGCAGCAAAAUUUTT against Spag16, the z-score was inactive: -0.474.
The value for GCACAAACUACUGAACUUGTT against Tfap2e was inactive: 1.36; that for GGCAUAAGAGAAAAGAUUUTT against Avpr1a was inactive: 0.895.
Consider GGGUUAUGAAGAGAAACUUTT against Gatad2b, for which the z-score is inactive: 0.236.
The value for CCUGUAUGGUCAAAGGAGUTT against Il6ra was inactive: -0.237; that for GGCUCUUCUACUCCUUUUUTT against Lsm2 was inactive: -0.555; that for GGACAACACCAGUGACAUCTT against Gzmf was inactive: 0.656.
On to GGCGGAGGAAGAGUUCAACTT against Atp6v1e2, for which the z-score was inactive: -0.393.
In the case of CCGUGAUCCCAUCAUGCAUTT against Ereg it was inactive: -0.239; in that of GGAUAAAUGGGUAAUUCUGTT against Vmn2r1, inactive: 0.269; in that of GGCCUCUGAGGACAAGUUUTT against Als2cl, inactive: 0.0383.
Regarding GGAAUCUGCCAUUUCAGAUTT against Zbtb5, the z-score is inactive: 1.35.
On to CGUACAAUAGCUAGGCAUUTT against Ankrd22, for which the z-score is inactive: 1.67.
Consider GGUCAACAAGCAUGCAUUUTT against Wars, for which the z-score was inactive: -1.65.
Regarding GGAAGUUUGUAUCAAUCCATT against Smad5, the z-score is inactive: 0.337.
Take GGAGUAUGUGGAAUGUCUATT against Creb3l1: the z-score was inactive: -0.903.
GGUCAUCAAAUACAAAAUGTT against Prl2b1: the z-score is inactive: -0.326.
As to GGAAAUGACUACUAUGACCTT against Slc12a4, the z-score was inactive: -0.712.
GGUUCACCACAGGUCUUGUTT against Hdac4: the z-score is inactive: -0.0347.
Consider CCUAACGUGCUUCCCACCATT against Arsa, for which the z-score is inactive: -1.47.
With GGUGUCGAGUAAGAAAGCUTT against Cep104, the z-score was inactive: -0.339.
With GGAAAUGUGGAAUACACCGTT against Prl7a2, the z-score was inactive: 1.39.
Turning to CCUUCAAUAUCAGUUUGGGTT against Olfr10, the z-score was inactive: -0.241.
Regarding UAUUUUGUUGCUCUCUCAGTT against Olfr97, the z-score was inactive: -1.13.
Turning to CCUGACAAAAGAACCUUAUTT against Arhgap32, the z-score is inactive: 0.812.
GCCUCCACAUAAGAAGCUGTT against Fndc3b: the z-score is inactive: -0.285.
GGAUAAGACUCGAUGGAUGTT against Ambra1: the z-score is inactive: 0.476.
With UGCCUAUUUGGGUAUUAUGTT against H2-M10.3, the z-score is inactive: -0.536.
In the case of “GCUGAAGACGUGAUUUCCUTT against 5930403N24Rik”, the z-score was inactive: 0.543.
The value for GGAAGAAAACAGCGAUUUGTT against Ppp1r15a was inactive: -0.447.
With GGAAGAGGAGGAGUACAAGTT against Fnbp1, the z-score is inactive: -0.0804.
Turning to “CCAUACAAGUAUCCGAACUTT against 1700102P08Rik”, the z-score was inactive: 1.03.
Turning to GUCUACCUUGUUUAUGACCTT against Micos13, the z-score is inactive: -1.7.
